Laboratory results from patent US20110034472A1, “Novel Compounds for Treatment of Cancer and Disorders Associated With Angiogenesis Function” (UNIVERSITY OF SOUTHERN CALIFORNIA, priority 2004, published 2011).
At least one structure is not confirmed: it was looked up by name or label, or the drawing left a doubt.

How the values were obtained:
MDA-MB-435 xenograft = assay: microPET study of nude mouse with MDA-MB-435 xenograft treated with SC144; type: in vivo; conditions: 5 days of SC144
Experimental: Top row, baseline scans: (A) equilibrium-phase FDG, 30 min post injection; (B) FMAU, 10 min post injection; (C) FMAU, 60 min post injection. Bottom row, follow-up scans: (D) FDG, 30 min post injection; (E) FMAU, 10 min post injection; (F) FMAU, 60 min post injection. […] After five days of dosing, the drug treatment was discontinued and the follow-up scans were obtained on days 6 and 7.
[^18F]FDG is currently the most widely used radiotracer for imaging therapy response in oncology with PET. PET/[^18F]FDG measures viable cell density in tumors and also provides information on the expression of glucose transporters and hexokinase activity. […] Following cellular uptake, FMAU is phosphorylated by thymidine kinase and incorporated into DNA.
In later images at 30 and 60 min (FIG. 8C), FMAU had filled up the whole tumor, indicating the presence of dividing cells throughout.
FIGS. 8D-F show a repeat study of the same mouse after 5 days of treatment.

[1] = Cell cycle profile of drugs (Table 3); type: cell-based; conditions: SC compounds

O=C(NNc1nc2cc(F)ccc2n2cccc12)c1cnccn1 [SC144, Pyrazine-2-carboxylic acid N′-(7-fluoro-pyrrolo[1,2-a]quinoxalin-4-yl)-hydrazide]
tumor perfusion (PET, FMAU) (MDA-MB-435 xenograft): appears to inhibit tumor perfusion
Cell cycle profile [1]: S-phase
